Results: paper PMC2551604
Results are given in words; binding and its absence hold for the method and conditions named. In cells and extracts the contact can be indirect. Some entries that bind do so weakly or less than the wild type. Values belong to the molecule of their own block, whether it stands above or below them.

Chains of the proteins cited; added tags and fusions are not shown.
UniProt Q9WVB2: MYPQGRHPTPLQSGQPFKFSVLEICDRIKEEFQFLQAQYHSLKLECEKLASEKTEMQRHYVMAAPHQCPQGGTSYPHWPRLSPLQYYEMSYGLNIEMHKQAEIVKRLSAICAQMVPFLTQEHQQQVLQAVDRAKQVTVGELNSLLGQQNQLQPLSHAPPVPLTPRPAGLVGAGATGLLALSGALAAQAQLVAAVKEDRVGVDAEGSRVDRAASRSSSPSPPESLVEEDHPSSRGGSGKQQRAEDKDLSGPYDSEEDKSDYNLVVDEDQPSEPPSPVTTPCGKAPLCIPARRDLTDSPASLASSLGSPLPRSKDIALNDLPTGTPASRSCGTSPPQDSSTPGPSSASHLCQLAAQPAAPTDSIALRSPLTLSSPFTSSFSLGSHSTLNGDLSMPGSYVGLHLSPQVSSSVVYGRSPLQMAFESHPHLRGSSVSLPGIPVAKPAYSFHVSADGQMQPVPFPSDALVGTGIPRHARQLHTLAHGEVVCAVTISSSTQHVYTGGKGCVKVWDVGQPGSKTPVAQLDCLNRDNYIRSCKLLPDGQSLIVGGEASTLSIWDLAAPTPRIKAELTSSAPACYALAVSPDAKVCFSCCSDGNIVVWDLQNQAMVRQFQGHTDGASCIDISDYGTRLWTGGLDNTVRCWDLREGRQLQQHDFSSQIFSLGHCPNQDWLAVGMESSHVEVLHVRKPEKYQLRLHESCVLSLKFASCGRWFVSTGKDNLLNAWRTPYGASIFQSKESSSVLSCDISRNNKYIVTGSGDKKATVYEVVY
UniProt O35085: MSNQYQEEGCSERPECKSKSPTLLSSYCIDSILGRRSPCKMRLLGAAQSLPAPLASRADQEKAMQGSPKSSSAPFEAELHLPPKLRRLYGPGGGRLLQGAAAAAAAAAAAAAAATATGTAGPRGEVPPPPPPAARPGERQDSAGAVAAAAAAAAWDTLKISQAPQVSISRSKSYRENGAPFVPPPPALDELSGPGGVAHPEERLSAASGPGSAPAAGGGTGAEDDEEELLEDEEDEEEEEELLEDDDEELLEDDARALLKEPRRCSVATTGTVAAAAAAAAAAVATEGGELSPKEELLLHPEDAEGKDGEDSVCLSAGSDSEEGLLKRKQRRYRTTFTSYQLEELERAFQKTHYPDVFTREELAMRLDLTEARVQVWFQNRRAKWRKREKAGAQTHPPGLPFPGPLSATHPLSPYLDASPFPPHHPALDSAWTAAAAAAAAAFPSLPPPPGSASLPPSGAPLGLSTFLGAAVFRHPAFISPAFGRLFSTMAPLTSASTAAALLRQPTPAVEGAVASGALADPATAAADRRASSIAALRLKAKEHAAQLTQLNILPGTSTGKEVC

What was measured:
Flag tagged Tle2 (mouse) = Flag tagged Tle2 (mouse) (UniProt Q9WVB2); assay: co-IP; lysate of Min6 cells transfected with pCMS-6xHis-Arx and pCMS-Flag-Tle2, 48 hrs; precipitation with anti-Tle2, rabbit IgG as control; blot with anti-His
[1] = molecular target: T1, Hes1 (mouse (endogenous in Min6)) (UniProt P35428); assay: co-IP; 200 ug Min6 lysate, endogenous proteins; precipitation with rabbit anti-Tle2 or anti-Hes1 and ProteinA-Sepharose, 4°, rabbit IgG as control; Western blot
T1 sequence: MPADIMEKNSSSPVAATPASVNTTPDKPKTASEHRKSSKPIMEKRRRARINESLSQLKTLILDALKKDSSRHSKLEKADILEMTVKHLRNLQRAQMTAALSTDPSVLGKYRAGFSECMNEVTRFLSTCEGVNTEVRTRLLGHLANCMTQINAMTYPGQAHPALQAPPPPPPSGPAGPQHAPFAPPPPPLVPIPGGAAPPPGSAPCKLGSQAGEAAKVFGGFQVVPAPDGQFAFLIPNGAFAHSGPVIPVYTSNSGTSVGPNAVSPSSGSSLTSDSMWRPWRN

[2] = molecular target: Tle2 (mouse (endogenous in Min6)) (UniProt Q9WVB2); assay: as above

binding (Flag tagged Tle2 (mouse)): binds
Molecule: 6xHis tagged Arx (from UniProt O35085 1-564)

binding [1]: binds
Molecule: Tle2 (from UniProt Q9WVB2 1-767)

binding [2]: binds
B1: Nkx2-2 (protein, UniProt P42586 1-273)
chain: MSLTNTKTGFSVKDILDLPDTNDEDGSVAEGPEEESEGPEPAKRAGPLGQGALDAVQSLPLKSPFYDSSDNPYTRWLASTEGLQYSLHGLAASAPPQDSSSKSPEPSADESPDNDKETQGGGGDAGKKRKRRVLFSKAQTYELERRFRQQRYLSAPEREHLASLIRLTPTQVKIWFQNHRYKMKRARAEKGMEVTPLPSPRRVAVPVLVRDGKPCHALKAQDLAAATFQAGIPFSAYSAQSLQHMQYNAQYSSASTPQYPTAHPLVQAQQWTW
